Measurements as given in PubChem BioAssay AID188 (DTP/NCI, 2004).
The mice bore no tumour; each value counts animals alive of those treated. Survivors were counted at the toxicity check, usually on the fifth day, unless a day is given; later deaths do not show. Schedules are NCI's codes, taken here to give the interval after Q, in days (D) or hours (H), and the number of doses after X. Additions like (4×) count equal records among those shown. Some doses were run more than once; their values stand side by side, smallest first.

System: CD2F1 mice, nontumored, toxicity/survival
Test: NCI In Vivo Anticancer Drug Screen. Data for tumor model Nontumored Animals (Toxicity Test) in CD2F1 (CDF1) mice

What does the source list for `NC(CSC(c1ccccc1)(c1ccccc1)c1ccccc1)C(=O)O` (centres undefined)?
survivor count (dose: 125.0 mg/kg/injection, schedule: Q03HX016 (oral), vehicle: clinical formulation): 7 of 8; survivor count (dose: 125.0 mg/kg/injection, schedule: Q03HX024 (oral), vehicle: clinical formulation): 8 of 8; survivor count (dose: 125.0 mg/kg/injection, schedule: Q04DX003 (oral), vehicle: clinical formulation): 8 of 8; survivor count (dose: 160.0 mg/kg/injection, schedule: Q01DX001 (ip), vehicle: water): 1 of 8; survivor count (dose: 160.0 mg/kg/injection, schedule: Q01DX001 (oral), vehicle: water): 8 of 8; survivor count (dose: 160.0 mg/kg/injection, schedule: Q01DX001 (sc), vehicle: water): 7 of 8; survivor count (dose: 160.0 mg/kg/injection, schedule: Q01DX009 (ip), vehicle: water): 0 of 8; survivor count (dose: 160.0 mg/kg/injection, schedule: Q01DX009 (oral), vehicle: water): 8 of 8 (2×); survivor count (dose: 160.0 mg/kg/injection, schedule: Q01DX009 (sc), vehicle: water): 7 of 8; survivor count (dose: 160.0 mg/kg/injection, schedule: Q04DX003 (ip), vehicle: water): 0 of 8; survivor count (dose: 160.0 mg/kg/injection, schedule: Q08DX002 (ip), vehicle: water): 0 of 8; survivor count (dose: 250.0 mg/kg/injection, schedule: Q01DX001 (oral), vehicle: clinical formulation): 8 of 8; survivor count (dose: 250.0 mg/kg/injection, schedule: Q01DX009 (oral), vehicle: clinical formulation): 8 of 8; survivor count (dose: 250.0 mg/kg/injection, schedule: Q03HX008 (oral), vehicle: clinical formulation): 6 of 8; survivor count (dose: 250.0 mg/kg/injection, schedule: Q03HX016 (oral), vehicle: clinical formulation): 7 of 8; survivor count (dose: 250.0 mg/kg/injection, schedule: Q03HX024 (oral), vehicle: clinical formulation): 7 of 8; survivor count (dose: 250.0 mg/kg/injection, schedule: Q04DX003 (oral), vehicle: clinical formulation): 8 of 8; survivor count (dose: 250.0 mg/kg/injection, schedule: Q08DX002 (oral), vehicle: clinical formulation): 8 of 8; survivor count (dose: 320.0 mg/kg/injection, schedule: Q01DX001 (ip), vehicle: water): 0 of 8; survivor count (dose: 320.0 mg/kg/injection, schedule: Q01DX001 (oral), vehicle: water): 7 of 8; survivor count (dose: 320.0 mg/kg/injection, schedule: Q01DX001 (sc), vehicle: water): 8 of 8; survivor count (dose: 320.0 mg/kg/injection, schedule: Q01DX009 (oral), vehicle: water): 7 of 8 and 8 of 8; survivor count (dose: 320.0 mg/kg/injection, schedule: Q04DX003 (ip), vehicle: water): 0 of 8; survivor count (dose: 320.0 mg/kg/injection, schedule: Q08DX002 (ip), vehicle: water): 0 of 8; survivor count (dose: 500.0 mg/kg/injection, schedule: Q01DX001 (oral), vehicle: clinical formulation): 8 of 8; survivor count (dose: 500.0 mg/kg/injection, schedule: Q01DX009 (oral), vehicle: clinical formulation): 8 of 8; survivor count (dose: 500.0 mg/kg/injection, schedule: Q03HX008 (oral), vehicle: clinical formulation): 5 of 8; survivor count (dose: 500.0 mg/kg/injection, schedule: Q03HX016 (oral), vehicle: clinical formulation): 3 of 8; survivor count (dose: 500.0 mg/kg/injection, schedule: Q04DX003 (oral), vehicle: clinical formulation): 8 of 8; survivor count (dose: 500.0 mg/kg/injection, schedule: Q08DX002 (oral), vehicle: clinical formulation): 8 of 8; survivor count (dose: 640.0 mg/kg/injection, schedule: Q01DX001 (ip), vehicle: water): 0 of 8; survivor count (dose: 640.0 mg/kg/injection, schedule: Q01DX001 (oral), vehicle: water): 8 of 8; survivor count (dose: 640.0 mg/kg/injection, schedule: Q01DX001 (sc), vehicle: water): 8 of 8; survivor count (dose: 640.0 mg/kg/injection, schedule: Q08DX002 (ip), vehicle: water): 0 of 8; survivor count (dose: 1000.0 mg/kg/injection, schedule: Q01DX001 (oral), vehicle: clinical formulation): 8 of 8; survivor count (dose: 1000.0 mg/kg/injection, schedule: Q04DX003 (oral), vehicle: clinical formulation): 8 of 8; survivor count (dose: 1000.0 mg/kg/injection, schedule: Q08DX002 (oral), vehicle: clinical formulation): 8 of 8; survivor count (dose: 1280.0 mg/kg/injection, schedule: Q01DX001 (oral), vehicle: water): 7 of 8; survivor count (dose: 1280.0 mg/kg/injection, schedule: Q01DX001 (sc), vehicle: water): 1 of 8; survivor count (dose: 2000.0 mg/kg/injection, schedule: Q01DX001 (oral), vehicle: clinical formulation): 8 of 8; survivor count (dose: 2000.0 mg/kg/injection, schedule: Q04DX003 (oral), vehicle: clinical formulation): 7 of 8; survivor count (dose: 2000.0 mg/kg/injection, schedule: Q08DX002 (oral), vehicle: clinical formulation): 8 of 8; survivor count (dose: 4000.0 mg/kg/injection, schedule: Q01DX001 (oral), vehicle: clinical formulation): 8 of 8; survivor count (dose: 4000.0 mg/kg/injection, schedule: Q08DX002 (oral), vehicle: clinical formulation): 7 of 8
